Values joined by “and” are separate entries in the source; they are usually repeats but may differ in a detail not shown here. Identical values can stand only once. Hit rate of the full screen: of about 330,000 compounds, about 7,700 (2.3%) were called active. This list was built around the results that the source calls inconclusive (neither active nor inactive); the mix of calls is not that of the screen. The call rests on the fitted dose curve; in most records, active means well fitted inhibition curve with a large enough effect; inconclusive means small, poorly fitted or top-dose-only effect, or effect the other way; inactive means flat fitted curve, though single readings scatter. A potency beside an inconclusive call is a rough fit, not a confirmed value.
Assay: qHTS screen for small molecules that inhibit ELG1-dependent DNA repair in human embryonic kidney (HEK293T) cells expressing luciferase-tagged ELG1; further: nearly all actives have a fitted effect of over 55% in size
Settings: HEK293T ELG1-luciferase reporter, luminescence, 16 h, DNA damage induced by 5-fluorouridine; activity change, negative = inhibition: at 46.1 µM (top of the series)
Method in brief: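 Cells (2,000 per well) received 5-fluorouridine plus test compound or DMSO and were incubated 16 hr at 37 °C, 5% CO2. Luciferase activity was read by luminescence 30 min after ONE-Glo addition; signal suppression marked inhibition of damage-induced ELG1 function.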
With `O=C1CCCC(O)=C1N=Nc1c(Cl)cc(Cl)cc1Cl` the “activity change, negative = inhibition” value was inactive: 15.3%.
For `CCCCCCn1c(=O)[nH]c2nc3cc(N)ccc3nc2c1=O`, the “activity change, negative = inhibition” value was inactive: -24.3%.
With `CCCC(=O)Nc1ccccc1-c1nnn(CC(=O)Nc2ccc(OCC)cc2)n1` the Potency was inconclusive: 5.17 µM [inhibitor, full curve].
In the case of `CC1CCCCN1C(=S)NC(=O)c1cc(Br)ccc1Cl` (stereo not given), the “activity change, negative = inhibition” value is reported as inactive: -12.8%.
With `O=C(COc1ccccc1[N+](=O)[O-])N(Cc1ccccc1)c1ccccn1` the “activity change, negative = inhibition” value was inactive: -0.276%.
In the case of `O=C(c1ccc(OCc2cn3ccccc3n2)cc1)N1CCN(S(=O)(=O)c2ccccc2F)CC1`, the Potency is reported as inconclusive: 29.1 µM [inhibitor, single point].
For `Cc1nn(-c2ccccc2)c(Cl)c1/C=N\NC(=O)c1cncc(Br)c1`, the Potency was inconclusive: 16.4 µM [activator, partial curve, poor fit].
With `COc1cccc(CNc2nc3ccccc3n2CCN2CCCCC2)c1OC` the Potency was inconclusive: 29.1 µM [inhibitor, single point].
For `CCNc1nc(CC)nc2c1oc1ccccc12`, the “activity change, negative = inhibition” value was inactive: -26%.
In the case of `COc1ccc(C)cc1NC(=S)N1CCN(c2ccccn2)CC1`, the “activity change, negative = inhibition” value is reported as inactive: 21.5%.
For `Cc1cc(C(=O)COC(=O)C2=NNC(=O)CC2)c(C)n1-c1ccccc1`, the Potency was inconclusive: 20.6 µM [activator, partial curve, poor fit].
With `CCOc1ncccc1C(=O)OCc1cc(=O)oc2c(C)c(C)ccc12` the “activity change, negative = inhibition” value was inactive: -1.64%.
With `C=CCOc1cccc(C(=O)N2CCCC(CNS(=O)(=O)c3cccs3)C2)c1` (stereo not given) the “activity change, negative = inhibition” value was inactive: -16.5%.
With `COc1ccc(C(=O)C2CCCN(C(=O)C3=CCCC3)C2)c(C)c1` (stereo not given) the “activity change, negative = inhibition” value was inactive: -18.3%.
In the case of `Cc1cc(OCc2cccc(S(=O)(=O)N3CCOCC3)c2)ccc1Cl`, the “activity change, negative = inhibition” value is reported as inactive: -20.5%.
With `CSc1nc(N)nc2c1ncn2CC(=O)N1CCN(Cc2c(C)cc(C)cc2C)CC1` the Potency was active: 2.31 µM.
For `COc1ccc(C(=O)COC(=O)C2CCN(c3ccc(C(F)(F)F)cn3)CC2)c(OC)c1`, the “activity change, negative = inhibition” value was inactive: -3.09%.
With `COc1ccc2nc(COC(=O)c3cccs3)c(C(C)=O)[n+]([O-])c2c1` the “activity change, negative = inhibition” value was inactive: 7.56%.
With `COc1ccc(S(=O)(=O)N2CCC(C)CC2)cc1N(C)S(=O)(=O)c1ccccc1` the “activity change, negative = inhibition” value was inactive: -13.8%.
In the case of `COc1ccc2c(c1)OC[C@H]1[C@H]2N2C(=O)c3cc(OC)ccc3NC(=O)[C@@]2(C)[C@H]1c1ccccc1`, the Potency is reported as inconclusive: 20 µM [inhibitor, single point].
For `COc1ccc(C/C(C)=N/Nc2nc(C)cc(=O)[nH]2)cc1`, the Potency was inconclusive: 29.1 µM [activator, single point].
In the case of `CCOC(=O)C1=C(C)N(c2ccccc2)C(=O)/C1=C\c1ccco1`, the “activity change, negative = inhibition” value is reported as inactive: -26%.
With `O=C(NCc1ccc2c(c1)OCO2)c1nn(-c2ccccc2)c(=O)c2ccccc12` the Potency was inconclusive: 29.1 µM [inhibitor, single point].
With `CCOC(=O)c1c(C)nc(C)c(C(=O)OCC)c1-c1ccc(OC)cc1` the Potency was inconclusive: 18.4 µM [inhibitor, single point] and inconclusive: 20.6 µM [inhibitor, single point].
With `O=C(COC(=O)c1cccc(NS(=O)(=O)c2ccc(F)c(F)c2)c1)NC(=O)NC1CCCCC1` the “activity change, negative = inhibition” value was inactive: -6.75%.
With `CCCCOc1ccc(-c2ncc([N+](=O)[O-])cn2)cc1` the Potency was inconclusive: 9.2 µM [activator, partial curve].
With `O=C(CCCc1ccccc1)c1ccccc1` the Potency was inconclusive: 9.2 µM [activator, partial curve].
With `O=C1CC[C@@]23CCCN2C(=O)CCCC3C1` (stereo not given in full) the Potency was inconclusive: 20.6 µM [activator, partial curve, poor fit].
For `O=C(NCc1cccc(Cl)c1)NCc1cccc(Cl)c1`, the Potency was inconclusive: 29.1 µM [activator, partial curve, poor fit].
With `CCC(C)(C)c1ccc(OCCCC[n+]2cccc(C)c2C)c(C(C)(C)CC)c1` the Potency was active: 2.59 µM.
For `O=C(NCCc1ccccc1)c1ccccc1NC(=O)C1CCCO1` (stereo not given), the Potency was inconclusive: 2.59 µM [activator, full curve].
In the case of `CCN1C(=S)N[C@@H](c2cccc(F)c2)C(C(=O)OC)=C1C`, the “activity change, negative = inhibition” value is reported as inactive: 9.02%.
In the case of `CC(=O)NC/C(C)=N\Nc1ccc([N+](=O)[O-])cc1`, the Potency is reported as inconclusive: 3.26 µM [inhibitor, full curve].
With `N#C/C(=N\Nc1cccc([N+](=O)[O-])c1)C(=O)c1ccc(Br)cc1` the Potency was active: 1.83 µM.
For `CC1=C(c2ccc(C(C)C)cc2)S(=O)(=O)N=C1N1CCN(C(=O)c2ccco2)CC1`, the “activity change, negative = inhibition” value was inactive: 0.0915%.
With `S=c1nc(-c2sccc2OCc2ccc(Cl)cc2Cl)[nH][nH]1` the Potency was inconclusive: 20.6 µM [inhibitor, single point].
For `CCOC(=O)NCc1ccc2[nH]c(C)cc2c1`, the Potency was inconclusive: 20.6 µM [activator, partial curve].
In the case of `CCOC(=O)Nc1ccc2c(c1)OCO2`, the Potency is reported as inconclusive: 20.6 µM [activator, partial curve].
For `Cc1cc(C)c(C#N)c(Nc2ccc3c(c2)OCCO3)n1`, the “activity change, negative = inhibition” value was inactive: -1.2%.
For `CN(C(=O)CSc1nnc(Cc2ccccc2F)n1N)C1CCCCC1`, the Potency was inconclusive: 16.4 µM [activator, partial curve, poor fit].
In the case of `O=[N+]([O-])c1ccc(Cc2nnc(-c3ccc(F)cc3)o2)cc1`, the Potency is reported as inconclusive: 1.83 µM [activator, partial curve].
With `CCOc1cc2c(cc1OCC)CN(C(=O)c1cccc(S(=O)(=O)N3CCCC3)c1)CC2` the Potency was inconclusive: 35.5 µM [inhibitor, single point].
For `COc1ccc(CCNC(=O)C(=O)NCC2OCCN2S(=O)(=O)c2ccc(F)cc2)cc1` (stereo not given), the Potency was inconclusive: 20.6 µM [inhibitor, partial curve, poor fit].
With `CCc1ccc(-c2cc(C)no2)cc1S(=O)(=O)N1CCN(c2ccc(C(C)=O)cc2)CC1` the Potency was inconclusive: 23.1 µM [inhibitor, single point].
In the case of `COC(=O)C(C)Oc1ccc(-c2nccc(-c3ccccn3)n2)cc1` (stereo not given), the “activity change, negative = inhibition” value is reported as inactive: 15.5%.
For `NC(=O)Cn1cc(/C=N\NS(=O)(=O)c2ccc(Cl)cc2)c2ccccc21`, the “activity change, negative = inhibition” value was inactive: -4.23%.
In the case of `CC1(C)COC(c2cccn2Cc2ccc(F)cc2Cl)=N1`, the Potency is reported as inconclusive: 29.1 µM [activator, single point].
With `Cc1nn(C)c(Nc2ccc(Br)cc2)c1Br` the Potency was inconclusive: 6.51 µM [inhibitor, single point].
For `O=C(N/N=C/c1c[nH]c2ccc(Br)cc12)c1ccncc1`, the “activity change, negative = inhibition” value was inactive: 1.56%.
For `COc1ccccc1C(=O)NCCC(=O)Nc1ccc(S(=O)(=O)N2CCC(C)CC2)cc1`, the Potency was inconclusive: 29.1 µM [inhibitor, single point].
For `COc1ccc(C(=O)c2cnc[nH]2)cc1OC`, the Potency was inconclusive: 2.91 µM [activator, full curve, poor fit].
With `COc1ccc(-c2nc(CS(=O)(=O)CC(=O)NCCc3ccccc3)c(C)o2)cc1` the Potency was inconclusive: 20.6 µM [activator, single point].
With `O=C(Cc1cccs1)NNC(=S)NCc1ccco1` the “activity change, negative = inhibition” value was inactive: 2.33%.
For `CS(=O)(=O)c1cccc(C(=O)OCC(=O)Nc2ccc3c(c2)OCO3)c1`, the “activity change, negative = inhibition” value was inactive: 7.03%.
In the case of `CC(C)NC(=NCc1ccc(Cl)cc1Cl)Nc1ccccc1`, the Potency is reported as inconclusive: 29.1 µM [inhibitor, single point].
In the case of `COc1ccc(CN(C)CC2CCCN(CCc3ccc(Cl)cc3)C2)cc1OC` (stereo not given), the “activity change, negative = inhibition” value is reported as inactive: -5.84%.
In the case of `O=C(Cc1csc(N2CCOCC2)n1)N/N=C/c1ccc(Cl)cc1Cl`, the Potency is reported as active: 23.1 µM.
With `COc1cccc(Nc2nc(-c3sc(NC(=O)c4ccco4)nc3C)cs2)c1` the Potency was inconclusive: 20.6 µM [inhibitor, partial curve].
In the case of `Cc1ccc(Nc2ccc(NCc3ccccc3)nn2)cc1C`, the Potency is reported as inconclusive: 18.4 µM [activator, partial curve].
In the case of `CCn1c(-c2csc3c2CCC(C)C3)n[nH]c1=S` (stereo not given), the “activity change, negative = inhibition” value is reported as inactive: 4.89%.
For `CCOC(=O)c1c(S(=O)(=O)NCC(=O)NCc2ccc(C)cc2)c(C)n(C)c1C`, the “activity change, negative = inhibition” value was inactive: 9.19%.
For `O=S(=O)(c1cc(-c2nnc(-c3ccc(Br)cc3)o2)ccc1Br)N1CCCCCC1`, the Potency was active: 20.6 µM.
With `COc1ccccc1C(=O)NNC(=O)Cc1ccccc1` the “activity change, negative = inhibition” value was inactive: 1.82%.
With `COc1cc(/C=C2/SC(=O)N(Cc3ccccc3)C2=O)ccc1OCc1ccncc1` the Potency was active: 10.3 µM.
With `COc1ccc(CN2CCN(C(=O)c3cccc4ccccc34)CC2)cc1OC` the Potency was active: 11.6 µM.
With `Cn1c(=O)c([N+](=O)[O-])c(-n2ccnc2)c2ccccc21` the “activity change, negative = inhibition” value was inactive: -3.15%.
For `c1coc(C2Nc3ccccc3-c3nc4ccccc4n32)c1` (stereo not given), the Potency was inconclusive: 9.2 µM [activator, partial curve].
For `Cc1cc(NC(=O)COc2c(C)cccc2C)no1`, the Potency was inconclusive: 16.4 µM [inhibitor, single point].
With `O=C(CN1CCCCC1)Nc1scc2c1c(=O)oc1ccccc12` the Potency was inconclusive: 3.66 µM [activator, full curve].
In the case of `CCCOc1ccc(C2=CC(=O)C[C@H](c3ccc(OC)cc3)C2)cc1`, the “activity change, negative = inhibition” value is reported as inactive: 10.3%.
With `Cc1[nH]n(-c2nc(-c3cccc([N+](=O)[O-])c3)cs2)c(=O)c1C` the Potency was inconclusive: 16.4 µM [activator, partial curve].
With `CCOc1ccc(-c2nnc(N)s2)cc1` the Potency was inconclusive: 13 µM [activator, partial curve].
With `O=C(COC(=O)c1n[nH]c(=O)c2ccccc12)Nc1ccccc1F` the “activity change, negative = inhibition” value was inactive: 22.1%.
For `CC(C)C(=O)Nc1nnc(SCC(=O)N2C(C)CCCC2C)s1` (stereo not given), the Potency was inconclusive: 2.06 µM [inhibitor, partial curve, poor fit].
For `CSc1ccc(CN(C)C(=O)C23CC4CC(CC(Cl)(C4)C2)C3)cc1`, the Potency was inconclusive: 20.6 µM [inhibitor, partial curve, poor fit].
On the % scale 0 is the no-effect control and ±100 the full control effect; potency means the concentration at half of the fitted maximal effect.
